Reference: PubChem BioAssay AID1671190 (National Center for Advancing Translational Sciences (NCATS), 2021)
The campaign covered roughly 580,000 compounds. About 6,100 (1.1%) were called active. Inconclusive means that the source gave no clear call. Such entries were picked first, then a sample of the others. The call rests on the fitted dose curve; in most records, active means well fitted inhibition curve with a large enough effect; inconclusive means small, poorly fitted or top-dose-only effect, or another doubt; inactive means no such curve, though single readings can be large or run the other way. Potencies of inconclusive entries are doubtful fits and often do not repeat.

By UniProt entry, the sequences of proteins in these tests, tags left out. Where a name states a change or a piece, a line headed by the entry shows the natural chain unless it says otherwise.
UniProt P18054: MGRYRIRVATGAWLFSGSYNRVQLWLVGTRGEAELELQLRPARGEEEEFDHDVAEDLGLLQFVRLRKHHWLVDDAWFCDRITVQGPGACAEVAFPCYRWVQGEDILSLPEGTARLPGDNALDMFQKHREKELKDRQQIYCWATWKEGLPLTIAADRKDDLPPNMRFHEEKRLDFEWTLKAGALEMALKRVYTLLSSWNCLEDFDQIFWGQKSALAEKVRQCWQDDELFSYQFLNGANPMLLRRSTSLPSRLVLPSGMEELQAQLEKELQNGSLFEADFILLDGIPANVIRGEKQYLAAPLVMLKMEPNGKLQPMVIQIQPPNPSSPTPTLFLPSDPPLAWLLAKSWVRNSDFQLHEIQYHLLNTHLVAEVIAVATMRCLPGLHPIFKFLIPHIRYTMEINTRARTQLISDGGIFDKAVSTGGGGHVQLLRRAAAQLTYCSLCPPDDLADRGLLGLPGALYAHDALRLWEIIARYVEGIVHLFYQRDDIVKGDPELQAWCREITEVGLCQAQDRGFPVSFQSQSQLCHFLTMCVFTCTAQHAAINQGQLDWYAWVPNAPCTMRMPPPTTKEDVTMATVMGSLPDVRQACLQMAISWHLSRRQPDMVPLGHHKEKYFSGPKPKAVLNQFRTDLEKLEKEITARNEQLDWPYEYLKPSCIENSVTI

Target: Polyunsaturated fatty acid lipoxygenase ALOX12 (Homo sapiens) (UniProt P18054)
Assay: Primary qHTS assay for inhibitors of human arachidonate 12S-lipoxygenase (ALOX12): Round 2
Conditions: purified 12hLO, xylenol orange hydroperoxide absorbance; series mostly up to 108 µM
Procedure, shortened: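 Purified human 12hLO at 150 nM in 25 mM Hepes, 0.01% Triton X-100, pH 7.0, preincubated 15 min at room temperature with compound. Reaction started with 40 uM arachidonic acid, 30 min at room temperature. Hydroperoxide measured by Fe-xylenol orange, 573/405 nm absorbance ratio.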
Potency means the concentration at half of the fitted maximal effect.

| SMILES | Potency |
| --- | --- |
| COc1cc(/C=N/NC(=O)c2cccs2)ccc1O | inactive |
| CSc1nnnn1-c1cccc(NC(=O)c2ccccc2Br)c1 | inactive |
| CC(=O)NCc1ccc(-c2csc(Nc3ccc(F)cc3)n2)o1 | inconclusive: 50.1 µM [inhibitor, partial curve, poor fit] |
| CCn1c(-c2ccccc2)csc1=Nc1ccc(O)cc1 | inconclusive: 39.8 µM [inhibitor, partial curve] |
| CN(C)c1nc(OCCNC(=O)Nc2ccccc2)nc(N2CCOCC2)n1 | inactive |
| COc1ccc(Nc2ccc3ccccc3c2)cc1 | inconclusive: 50.1 µM [inhibitor, single point] |
| CC1CCCN(C(=O)c2cc(S(=O)(=O)N3CCCCC3)c[nH]2)C1 (stereo not drawn) | inactive |
| Cc1cc(C#Cc2c(-c3ccccc3)n(C)c3ccccc23)ccc1F | inactive |
| O=[N+]([O-])c1ccc(NC(=S)N2CCN(S(=O)(=O)c3ccccc3)CC2)cc1 | inactive |
| Cc1cc(C)c2nc(N(CCCN(C)C)C(=O)c3ccc4c(c3)CCCC4)sc2c1 | inconclusive: 44.7 µM [inhibitor, partial curve, poor fit] |
| NC(=O)CN1C(=O)C(=O)N(Cc2ccc(Cl)cc2)C1=O | inconclusive: 79.4 µM [inhibitor, partial curve, poor fit] |
| CSc1ccc(-c2nc(CN3CCOCC(CN(C)C)C3)c(C)o2)cc1 (stereo not drawn) | inconclusive: 7.94 µM [inhibitor, full curve, poor fit] |
| CCc1ccc(C2=C(C)C(N3CCC(C(=O)Nc4ccc(F)cc4)CC3)=NS2(=O)=O)cc1 | inconclusive: 56.2 µM [inhibitor, partial curve, poor fit] |
| O=C(c1ccccc1)N1N=C(c2cccs2)CC1c1ccccc1O (stereo not drawn) | inactive |
| COc1cccc(CN2CCCC(C(=O)NCc3ccccc3)CCNC(=O)CC2)c1 (stereo not drawn) | inconclusive: 31.6 µM [inhibitor, full curve] |
| Cc1ccc(CNC(=O)[C@H]2CCC[C@H]2NC(=O)c2ccncc2)o1 | inactive |
| O=C(c1cccc(F)c1)N1CCC2(CCCN(c3ccccc3)C2)CC1 | inconclusive: 31.6 µM [inhibitor, single point] |
| O=C(NCC1CCN(Cc2ccc(Cl)cc2)CC1)C1CCCN(c2ncnc3c2nc2n3CCCCC2)C1 (stereo not drawn) | inconclusive: 44.7 µM [inhibitor, partial curve, poor fit] |
| O=C(Nc1ccc(Br)cc1)C1Cc2ccccc2O/C1=N\O (stereo not drawn) | inconclusive: 1.41 µM [inhibitor, partial curve, poor fit] |
| CO[C@H]1CN(C)C(=O)c2cc(NC(=O)c3cc(C)on3)ccc2OC[C@@H](C)N(C(=O)C2CC2)C[C@H]1C | inconclusive: 39.8 µM [inhibitor, partial curve, poor fit] |
| CN(Cc1ccccc1)C(=O)CC1CCCN(c2cnn(C)c(=O)c2)C1 (stereo not drawn) | inconclusive: 8.91 µM [inhibitor, full curve] |
| C[C@@]1(O)CCN(C(=O)c2ccc(-c3ccco3)cc2)C[C@@H]1O | inconclusive: 70.8 µM [inhibitor, partial curve] |

Two of these compounds, reformatted:
SMILES	Potency
CC(=O)NCc1ccc(-c2csc(Nc3ccc(F)cc3)n2)o1	inconclusive: 50.1 µM [inhibitor, partial curve, poor fit]
CCn1c(-c2ccccc2)csc1=Nc1ccc(O)cc1	inconclusive: 39.8 µM [inhibitor, partial curve]

Later entries

| SMILES | Potency |
| --- | --- |
| Fc1ccc(NC(=S)NCc2ccccc2Cl)cc1 | inconclusive: 50.1 µM [inhibitor, partial curve, poor fit] |
| COc1cccc(C2CC(=O)Nc3c2c(=O)[nH]c2ncnn32)c1OC (stereo not drawn) | inconclusive: 39.8 µM [inhibitor, full curve, poor fit] |
| N#Cc1cccc(-c2cc(-n3ccnc3)ncn2)c1 | inconclusive: 44.7 µM [inhibitor, partial curve, poor fit] |
| O=C1Cc2cc(NS(=O)(=O)c3ccc([N+](=O)[O-])cc3)cc3c2N1CCC3 | inconclusive: 50.1 µM [inhibitor, partial curve, poor fit] |
| CC(C(=O)N1CCC(c2cc(Cc3ccccc3)[nH]n2)CC1)N1CCCC1=O (stereo not drawn) | inactive |
| COc1ccc(N2C(=O)c3ccccc3NC2c2ccc(F)cc2)cc1 (stereo not drawn) | inconclusive: 63.1 µM [inhibitor, partial curve, poor fit] |
| COc1ccccc1-c1cc(NC(C)=O)c2ncc(-c3cccc(C(F)(F)F)c3)n2c1 | inconclusive: 44.7 µM [inhibitor, partial curve, poor fit] |
| OCC1CCN(c2ccc(-c3nc(CCCc4ccccc4)no3)cn2)CC1 | inactive |
| Fc1ccc(-c2csc3ncnc(Cl)c23)cc1 | inactive |
| O=C1CC(N2CCC(C(=O)N3CCCCC3)CC2)C(=O)N1 (stereo not drawn) | inconclusive: 2.82 µM [inhibitor, full curve, poor fit] |
| CC(=O)CSc1nc2cc3c(cc2cc1C#N)OCCO3 | inactive |
| Cc1ccccc1NC(=O)Cc1nc(-c2c(N)n(C)c(=O)n(C)c2=O)cs1 | inconclusive: 35.5 µM [inhibitor, partial curve, poor fit] |
| c1ccc(-c2csc(Nc3nc(N4CCOCC4)nc(N4CCOCC4)n3)n2)cc1 | inactive |
| CCOC(=O)c1ccc(NC(=S)Nc2ccccn2)cc1 | inconclusive: 1.12 µM [inhibitor, partial curve, poor fit] |
| Cc1ccc(N2CSC3=C(C#N)C(c4cccs4)CC(=O)N3C2)cc1 (stereo not drawn) | inconclusive: 25.1 µM [inhibitor, partial curve, poor fit] |
| Nc1nc(N)c2cc(Sc3ccc(Cl)cc3)ccc2n1 | inconclusive: 50.1 µM [inhibitor, partial curve, poor fit] |
| Cc1ccc(N2C(=O)Nc3ccc(Br)cc3C2(O)C(=O)NCCN(C)C)cc1C (stereo not drawn) | inactive |
| O=C(Nc1ccc2oc(-c3cccc(I)c3)nc2c1)c1ccc2c(c1)OCO2 | inconclusive: 50.1 µM [inhibitor, partial curve, poor fit] |
| O=c1[nH]c(C2CCCN(Cc3ccsc3)C2)nn1-c1ccc(Cl)cc1 (stereo not drawn) | inconclusive: 15.8 µM [inhibitor, full curve] |
| CCC(C)N=C1Sc2nc3ccc(C)cc3cc2CN1CCOC (stereo not drawn) | inconclusive: 50.1 µM [inhibitor, partial curve, poor fit] |
| CCOC(=O)C1CCCCN1Cc1ccccc1C(F)(F)F (stereo not drawn) | inconclusive: 0.631 µM [inhibitor, full curve, poor fit] |
